Laboratory results published in publication PMC3642088, “Phosphorylation of CDK9 at Ser175 Enhances HIV Transcription and Is a Marker of Activated P-TEFb in CD4^+ T Lymphocytes” (PLoS Pathogens, 2013).
No constants are given. Whether binding was seen depends on the method and setting. In cells and extracts the contact can be indirect. Here binding means that the protein was enriched with, or labelled near, the bait; the list need not be complete.

Amino acid sequences for entries named in this document (tags omitted). A change or cut given only in a name is not applied to a line headed by its entry. Chains listed by the source or under a name are the forms on record and can include a tag or linker.
UniProt P50750: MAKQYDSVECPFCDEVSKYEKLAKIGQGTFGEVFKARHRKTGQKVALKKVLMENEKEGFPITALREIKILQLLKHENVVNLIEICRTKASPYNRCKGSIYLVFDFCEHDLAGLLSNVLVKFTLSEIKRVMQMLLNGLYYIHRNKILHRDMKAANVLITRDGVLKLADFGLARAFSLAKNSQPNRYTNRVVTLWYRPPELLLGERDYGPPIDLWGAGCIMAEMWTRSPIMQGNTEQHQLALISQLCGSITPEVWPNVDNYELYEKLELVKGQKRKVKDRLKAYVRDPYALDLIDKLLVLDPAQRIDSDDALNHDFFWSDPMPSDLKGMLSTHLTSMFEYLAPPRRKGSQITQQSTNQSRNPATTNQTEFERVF
CDK9 Isoform 2 (117 amino acid extension at N-Terminus) (P50750-2, form named): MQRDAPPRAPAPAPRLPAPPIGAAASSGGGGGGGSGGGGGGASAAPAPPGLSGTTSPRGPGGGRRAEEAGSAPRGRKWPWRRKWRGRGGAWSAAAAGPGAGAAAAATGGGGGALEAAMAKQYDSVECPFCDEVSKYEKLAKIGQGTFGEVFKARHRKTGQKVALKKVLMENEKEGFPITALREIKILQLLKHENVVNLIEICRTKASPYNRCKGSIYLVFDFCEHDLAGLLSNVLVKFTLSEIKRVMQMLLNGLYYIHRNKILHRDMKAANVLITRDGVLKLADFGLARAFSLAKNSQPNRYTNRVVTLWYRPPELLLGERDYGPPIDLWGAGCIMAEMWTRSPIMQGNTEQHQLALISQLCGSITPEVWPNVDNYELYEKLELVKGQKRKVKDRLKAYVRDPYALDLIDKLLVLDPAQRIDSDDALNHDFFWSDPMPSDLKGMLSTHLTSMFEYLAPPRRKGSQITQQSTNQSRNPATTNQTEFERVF

Biological target: FLAG-CDK9 isoform 1, wild type (human) (UniProt P50750)
Test: affinity purification with mass spectrometry; FLAG-CDK9 complexes from whole cell extracts of Jurkat 2D10 cells (untreated, PMA or TCR stimulated) on anti-FLAG M2 agarose overnight at 4°C, lysis buffer A or RIPA buffer, eluted with FLAG peptide, SDS-PAGE bands analysed by nano LC-MS/MS

| binding | Molecule |
| --- | --- |
| binds | CDK9 Isoform 2 (117 amino acid extension at N-Terminus) (from UniProt P50750-2 1-489) (enzyme) |
| binds | HEXIM2 (protein, UniProt Q96MH2 1-286) MMATPNQTACNAESPVALEEAKTSGAPGSPQTPPERHDSGGSLPLTPRMESHSEDEDLAGAVGGLGWNSRSPRTQSPGGCSAEAVLARKKHRRRPSKRKRHWRPYLELSWAEKQQRDERQSQRASRVREEMFAKGQPVAPYNTTQFLMNDRDPEEPNLDVPHGISHPGSSGESEAGDSDGRGRAHGEFQRKDFSETYERFHTESLQGRSKQELVRDYLELEKRLSQAEEETRRLQQLQACTGQQSCRQVEELAAEVQRLRTENQRLRQENQMWNREGCRCDEEPGT |
